The text below walks through data of the supplement of paper PMC11061612.

This assay deals with IGROV-1 (Ovarian Carcinoma). The experiment in a line: combination Emax (second highest fraction inhibited in the dose matrix, 72 h); higher = more inhibition; extreme values may be limits of the assay. The method in brief: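 Cell lines grown in DMEM/F12 or RPMI with 10% FBS were plated in 1536-well plates and held 24 hours at 37°C, 5% CO2 before 72 hours of exposure to two-drug dose matrices, with DMSO typically at 0.2%. CellTiter-Glo 2.0 luminescence gave viability, which was converted to inhibition. Vehicle wells were set to 0 and blank wells to 1. Combination Emax is the second-highest inhibition in the matrix, and Bliss excess is the observed combination effect minus the expected EA + EB − EA·EB, where EA and EB are the single-agent effects.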

SMILES strings stand for the structures.

As for `COc1cc2ncnc(Nc3ccc(F)c(Cl)c3)c2cc1OCCCN1CCOCC1` [Gefitinib] + CC(C)n1c(=O)n(C)c2cnc3cc(F)c(-c4ccc(OCCCN5CCCCC5)nc4)cc3c21 [AZD1390] (first compound max 10 µM, 7x7, partner max 0.3 µM), the “combination Emax” value is 0.618.
